# Measured values published in the supplement of paper PMC3741180, “A Novel High Throughput Biochemical Assay to Evaluate the HuR Protein-RNA Complex Formation” (PLoS ONE, 2013).
# Sequences of proteins named here, by UniProt entry; tags and fusion partners are left off.
# UniProt Q15717, whole entry: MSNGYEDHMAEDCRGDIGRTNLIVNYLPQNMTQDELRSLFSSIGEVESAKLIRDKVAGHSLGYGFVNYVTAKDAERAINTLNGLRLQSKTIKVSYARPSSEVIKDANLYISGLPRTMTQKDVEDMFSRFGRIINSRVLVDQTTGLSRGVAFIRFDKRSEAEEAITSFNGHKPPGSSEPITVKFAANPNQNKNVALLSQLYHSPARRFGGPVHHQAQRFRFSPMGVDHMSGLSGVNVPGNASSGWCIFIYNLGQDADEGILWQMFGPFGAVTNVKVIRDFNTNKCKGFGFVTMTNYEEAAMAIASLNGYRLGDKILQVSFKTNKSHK
# Where “and” joins values, the source holds several entries; their conditions need not be identical. Identical values can stand only once. This is one part of the list. Repeats in this data set agree poorly, so a single value says little.
# Biological target: HuR (ELAVL1) - TNFalpha ARE RNA complex (UniProt Q15717)
# Assay: AlphaScreen HuR-RNA complex signal Z-score relative to positive (Bi-TNF, DMSO) controls (Z-score (SD units of positive control)); higher = more complex signal
# Details: screen stage: primary screen; compound concentration: 25 nM
row,SMILES,AlphaScreen HuR-RNA complex signal Z-score
1,CC(=O)Nc1ccc(S(=O)(=O)Nc2ccc([N+](=O)[O-])cc2)cc1,0.765
2,Cc1ccc(C(=O)Nc2ccc(S(=O)(=O)O)c3cc(S(=O)(=O)O)cc(S(=O)(=O)O)c23)cc1NC(=O)c1cccc(NC(=O)Nc2cccc(C(=O)Nc3cc(C(=O)Nc4ccc(S(=O)(=O)O)c5cc(S(=O)(=O)O)cc(S(=O)(=O)O)c45)ccc3C)c2)c1,2.09
3,CCc1cc(C(N)=S)ccn1,-1.55
4,CC(=O)Nc1c(I)c(NC(C)=O)c(I)c(C(=O)O)c1I,3.06
5,CN1CCN(C(c2ccccc2)c2ccc(Cl)cc2)CC1 (stereo not drawn),-3.49
6,Cc1ccc(C(C)C)cc2c(C)ccc1-2,1.26
7,O=C(N/N=C/c1ccc([N+](=O)[O-])o1)c1ccc(O)cc1,-0.199
8,C[C@@H]1O[C@@H]1P(=O)(O)O,-1.18
9,CCn1cc(C(=O)O)c(=O)c2cc(F)c(N3CCN(C)CC3)cc21,-8.41
10,CCCCC(=O)Oc1ccccc1C(=O)O,1.23
11,CCn1cc(C(=O)O)c(=O)c2cc(F)c(N3CCNC(C)C3)c(F)c21 (stereo not drawn),0.689
12,CS(=O)(=O)Nc1ccc([N+](=O)[O-])cc1Oc1ccccc1,1.6
13,O=C(O)C1=CCNCC1,1.92
14,CNC(=C[N+](=O)[O-])NCCSCc1csc(CN(C)C)n1,3.94
15,CC1(C)[C@@H](O[C@H]2O[C@H](C(=O)O)[C@@H](O)[C@H](O)[C@H]2O[C@@H]2O[C@H](C(=O)O)[C@@H](O)[C@H](O)[C@H]2O)CC[C@]2(C)[C@H]3C(=O)C=C4[C@@H]5C[C@@](C)(C(=O)O)CC[C@]5(C)CC[C@@]4(C)[C@]3(C)CC[C@@H]12,2.75
16,CCOC(=O)CCC(=O)O[C@H]1[C@H](O[C@@H]2[C@@H](C)[C@H](O[C@H]3C[C@@](C)(OC)[C@@H](O)[C@H](C)O3)[C@@H](C)C(=O)O[C@H](CC)[C@@](C)(O)[C@H](O)[C@@H](C)C(=O)[C@H](C)C[C@@]2(C)O)O[C@H](C)C[C@@H]1N(C)C,-3.24
17,C[C@]12C=CC(=O)C=C1CC[C@@H]1[C@@H]2C(=O)C[C@@]2(C)[C@H]1CC[C@]2(O)C(=O)CO,3.23
18,CC(=O)O[C@@H]1C[C@@]2(C)C(CC[C@@H]2C(C)=O)C2CCC3=CC(=O)CC[C@]3(C)C21 (stereo partly drawn),0.35
19,CO[C@H]1C[C@@H]2CC[C@@H](C)[C@@](O)(O2)C(=O)C(=O)N2CCCC[C@H]2C(=O)O[C@H]([C@H](C)C[C@@H]2CC[C@@H](O)[C@H](OC)C2)CC(=O)[C@H](C)/C=C(\C)[C@@H](O)[C@@H](OC)C(=O)[C@H](C)C[C@H](C)/C=C/C=C/C=C/1C,0.504
20,COC(=O)C[C@H]1C(C)(C)[C@@H](OC(C)=O)[C@@H]2CC3=C4CC(=O)O[C@@H](c5ccoc5)[C@]4(C)CC[C@@H]3[C@@]1(C)C2=O,0.984
21,C#C[C@]1(O)CC[C@H]2[C@@H]3CCc4cc(OC)ccc4[C@H]3CC[C@@]21C,9.02
22,CC(C)NCC(O)c1ccc(NS(C)(=O)=O)cc1 (stereo not drawn),2.5

row,SMILES,AlphaScreen HuR-RNA complex signal Z-score
1,CC(=O)N1CCN(c2ccc(OCC3COC(Cn4ccnc4)(c4ccc(Cl)cc4Cl)O3)cc2)CC1 (stereo not drawn),-1.34
2,CCN(CC)CCCC(C)Nc1c2ccc(Cl)cc2nc2ccc(OC)cc12 (stereo not drawn),-3.1
3,Cc1nc(C)c(Cl)c(O)c1Cl,4.48
4,CC1(C)C2CC(=O)O[C@@]3(C)C4=CC(=O)O[C@@H](c5ccoc5)[C@]4(C)CCC3[C@@]2(C)C=C[C@H]1O (stereo partly drawn),1.66
5,O=C(O)P(=O)(O)O,1.57
6,COc1cc2c(cc1OC)-c1cc3ccc(OC)c(OC)c3c[n+]1CC2,1.42 and 1.74
7,COC(=O)[C@H]1[C@H]2C[C@@H]3c4[nH]c5cc(OC)ccc5c4CCN3C[C@H]2C[C@@H](OC(=O)c2cc(OC)c(OC)c(OC)c2)[C@@H]1OC,-2.92
8,CNC(=C[N+](=O)[O-])NCCSCc1ccc(CN(C)C)o1,1.24
9,O=c1c(-c2ccc(O)cc2)coc2cc(O)cc(O)c12,2.31
10,O=C1C=C2CC3(O)COc4cc(O)ccc4C3=C2C=C1O (stereo not drawn),0.986
11,N[C@H](Cc1ccccc1)C(=O)O,3.05
12,O=C1C=CC(=C(c2ccc(O)cc2)c2ccc(O)cc2)C=C1,2.16
13,CCCc1nc(C)c2c(O)nc(-c3cc(S(=O)(=O)N4CCN(CC)CC4)ccc3OCC)nn12,0.457
14,CCN(CC)CCNC(=O)c1ccc(NC(C)=O)cc1,3.6
15,CNC[C@H](O)c1cccc(O)c1,2.96
16,CC(C)(CO)[C@@H](O)C(=O)NCCCO,2.18
17,O=C(O[C@@H]1Cc2c(O)cc(O)cc2O[C@@H]1c1cc(O)c(O)c(O)c1)c1cc(O)c(O)c(O)c1,1.57
18,"CC(C(=O)O)[C@H]1CCC2C3CC=C4C[C@@H](O)CC[C@]4(C)C3CC[C@@]21C (stereo partly drawn) [3beta-HYDROXY-23,24-BISNORCHOL-5-ENIC ACID]",1.86
19,NS(=O)(=O)c1cc2c(cc1Cl)N=C(CSCc1ccccc1)NS2(=O)=O,0.987
20,CC(=O)OC/C=C(C)/C=C/C=C(C)/C=C/C1=C(C)CCCC1(C)C,3.23
21,O=C1C(CC[S+]([O-])c2ccccc2)C(=O)N(c2ccccc2)N1c1ccccc1 (stereo not drawn),11.2
